Results are given in words; binding and its absence hold for the method and conditions named. Binding seen in cells or lysates may run through a third protein. Binding can be weak; no strength is given. Tags and fused reporters may be left off the sequences shown.
Legend:
[1] = molecular target: GST-nesprin-2 SR11-13 (human); assay: pull-down
[2] = molecular target: GST-nesprin-2 SR11-12 (human); assay: pull-down

B1: FLAG-tagged FHOD1 (protein, UniProt Q9Y613 1-1164)
chain: MAGGEDRGDGEPVSVVTVRVQYLEDTDPFACANFPEPRRAPTCSLDGALPLGAQIPAVHRLLGAPLKLEDCALQVSPSGYYLDTELSLEEQREMLEGFYEEISKGRKPTLILRTQLSVRVNAILEKLYSSSGPELRRSLFSLKQIFQEDKDLVPEFVHSEGLSCLIRVGAAADHNYQSYILRALGQLMLFVDGMLGVVAHSDTIQWLYTLCASLSRLVVKTALKLLLVFVEYSENNAPLFIRAVNSVASTTGAPPWANLVSILEEKNGADPELLVYTVTLINKTLAALPDQDSFYDVTDALEQQGMEALVQRHLGTAGTDVDLRTQLVLYENALKLEDGDIEEAPGAGGRRERRKPSSEEGKRSRRSLEGGGCPARAPEPGPTGPASPVGPTSSTGPALLTGPASSPVGPPSGLQASVNLFPTISVAPSADTSSERSIYKARFLENVAAAETEKQVALAQGRAETLAGAMPNEAGGHPDARQLWDSPETAPAARTPQSPAPCVLLRAQRSLAPEPKEPLIPASPKAEPIWELPTRAPRLSIGDLDFSDLGEDEDQDMLNVESVEAGKDIPAPSPPLPLLSGVPPPPPLPPPPPIKGPFPPPPPLPLAAPLPHSVPDSSALPTKRKTVKLFWRELKLAGGHGVSASRFGPCATLWASLDPVSVDTARLEHLFESRAKEVLPSKKAGEGRRTMTTVLDPKRSNAINIGLTTLPPVHVIKAALLNFDEFAVSKDGIEKLLTMMPTEEERQKIEEAQLANPDIPLGPAENFLMTLASIGGLAARLQLWAFKLDYDSMEREIAEPLFDLKVGMEQLVQNATFRCILATLLAVGNFLNGSQSSGFELSYLEKVSEVKDTVRRQSLLHHLCSLVLQTRPESSDLYSEIPALTRCAKVDFEQLTENLGQLERRSRAAEESLRSLAKHELAPALRARLTHFLDQCARRVAMLRIVHRRVCNRFHAFLLYLGYTPQAAREVRIMQFCHTLREFALEYRTCRERVLQQQQKQATYRERNKTRGRMITETEKFSGVAGEAPSNPSVPVAVSSGPGRGDADSHASMKSLLTSRPEDTTHNRRSRGMVQSSSPIMPTVGPSTASPEEPPGSSLPSDTSDEIMDLLVQSVTKSSPRALAARERKRSRGNRKSLRRTLKSGLGDDLVQALGLSKGPGLEV
**Q.** What does the source list for B1?
**A.** binding [1]: binds; binding [2]: binds

Source: paper doi:10.1101/2025.06.13.659598
